Reference: PubChem BioAssay AID1347076 (National Center for Advancing Translational Sciences (NCATS), 2019)
About 13,000 (3.2%) of roughly 400,000 compounds were called active. Inconclusive means that the source gave no clear call. Such entries were picked first, then a sample of the others. Calls follow the shape of the dose curve; as a rule, active = well fitted cell-killing curve with a large enough effect; inconclusive = small, poorly fitted or top-dose-only effect, or effect the other way; inactive = flat fitted curve, though single readings scatter. A potency beside an inconclusive call is a rough fit, not a confirmed value.

test: qHTS assay for MDR1-selective chemotherapeutics: Primary screen using the drug-selected MDR subline cells KB-V1; settings: KB-V1 MDR cells viability, CellTiter-Glo, 72 h; series mostly up to 46.1 µM; also: nearly all actives have a fitted effect of over 60% in size
Method in brief: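 KB-V1 MDR subline cells in DMEM (phenol-red free, 10% FBS) exposed to compounds in qHTS concentration series for 72 h at 37 degrees C. Viability read by CellTiter-Glo luminescence; concentration-effect curves fitted after normalization and correction.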
Potency is read from the fitted curve at half-maximal effect.

Compound | Potency
O=C(c1cc(COc2ccc3ncccc3c2)on1)N1CCC(O)CC1 | inactive
Cc1ccccc1C(=O)NC1CCN(CC(=O)N2CCCCC2C)CC1 (stereo not drawn) | inactive
CCCn1c(=O)c(C(=O)NNC(=O)Cc2ccccc2)c(O)c2ccccc21 | inconclusive: 25.9 µM [cytotoxic, partial curve, poor fit]
Cc1noc(C)c1COC(=O)c1ccc(F)c(S(=O)(=O)N2CCCCC2)c1 | inconclusive: 6.51 µM [cytotoxic, partial curve]
CCOc1ccccc1NC(=O)c1ccc2ccccc2c1 | inconclusive: 23.1 µM [cytotoxic, single point]
Cc1ccc(-c2cnc(NC(=O)CCC(=O)N3CCCCC3)n2C)cc1 | inactive
CCC(C)N1C(=O)CCC1C(=O)N1CCN(c2ccc(F)cc2)CC1 (stereo not drawn) | inconclusive: 18.4 µM [cytotoxic, partial curve, poor fit]
COc1ccc(CCC(=O)NC(C)C2CCCO2)cc1 (stereo not drawn) | inconclusive: 25.9 µM [rising, partial curve, poor fit]
COc1ccc(OC)c(NC(=O)CC2SC(=N)N(c3ccccc3)C2=O)c1 (stereo not drawn) | inconclusive: 18.4 µM [cytotoxic, single point]
CNC(=O)c1ccsc1NC(=O)c1ccc(S(=O)(=O)N2CCc3ccccc32)cc1 | inactive
COc1ccc(S(=O)(=O)CC(=O)c2cc3cc(Br)ccc3oc2=O)cc1 | inconclusive: 29.1 µM [rising, partial curve, poor fit]
COc1cccc(C(C(=O)NCc2ccco2)N(C(=O)Cn2nnc3ccccc32)C2CC2)c1OC (stereo not drawn) | inconclusive: 16.4 µM [cytotoxic, partial curve, poor fit]
Cc1cc(NS(C)(=O)=O)c(=O)n(Cc2cccc(C(F)(F)F)c2)c1 | inactive
CSc1nc(-c2ccc(C)cc2)nc(C(Cl)Cl)n1 | active: 18.4 µM
COc1ccc2c(c1)c(C(=O)OCCN(C)C)c(C)n2C | inconclusive: 32.6 µM [cytotoxic, single point]
COc1ccc(Cn2nnnc2C(CC(C)C)N2CCN(c3ccccc3)CC2)cc1 (stereo not drawn) | inconclusive: 8.2 µM [cytotoxic, partial curve]
COc1ccc(C(=O)Nc2cc(C(C)C)c(O)c(S(=O)(=O)c3ccc(OC)cc3)c2C)cc1 | inconclusive: 16.4 µM [rising, single point]
CCOC(=O)CC1(C)Sc2ccccc2N1S(=O)(=O)c1ccc(C)cc1 (stereo not drawn) | inconclusive: 20.6 µM [cytotoxic, partial curve]
CC1(C)C2CCC1(C)C(SC(=N)N)C2 (stereo not drawn) | active: 18.4 µM
COc1ccccc1CNC(=O)C1CCN(S(=O)(=O)c2ccc(N3CCCC3=O)cc2)CC1 | inactive
CCOC(=O)CSc1nc(-c2ccccn2)ncc1OC | inconclusive: 5.17 µM [cytotoxic, full curve, poor fit]
CC1=C(C(=O)Nc2cccnc2)C(c2cccc(O)c2)n2nc(SCc3ccccc3)nc2N1 (stereo not drawn) | inconclusive: 16.4 µM [rising, single point]

Compound | Potency
CCCc1c(C(=O)N/N=C(\C)c2cccnc2)nnn1-c1nonc1N | inactive
CCn1c(C)nc2cc(C(=O)OCCC(F)(F)F)ccc21 | inconclusive: 32.6 µM [cytotoxic, single point]
Cc1noc(C)c1COc1ccccc1C(=O)NCCc1ccccc1 | inconclusive: 8.2 µM [cytotoxic, partial curve]
O=C(N/N=C/c1coc2ccccc2c1=O)c1cc(O)cc(O)c1 | inconclusive: 0.651 µM [cytotoxic, full curve, poor fit]
Cc1cccc(-n2c(SCC(=O)c3c(N)n(C4CC4)c(=O)[nH]c3=O)nnc2N2CCOCC2)c1 | inconclusive: 0.517 µM [rising, full curve, poor fit]
CN1CCCN(S(=O)(=O)c2ccccc2)c2nc3ccccc3nc21 | inactive
O=CNc1cc(-c2ccsc2)cn2c(-c3ccccc3)cnc12 | inconclusive: 20.6 µM [cytotoxic, single point]
COc1ccccc1/C=C/C(=O)NC(=S)NCC1CCCO1 (stereo not drawn) | inconclusive: 25.9 µM [cytotoxic, partial curve, poor fit]
CS(=O)(=O)c1ccc(C(=O)Nc2cccc(-c3nc4ccccc4[nH]3)c2)cc1 | inconclusive: 29.1 µM [rising, single point]
CCOC(=O)Cc1cc(=O)[nH]c(Nc2nc3ccccc3o2)n1 | inconclusive: 25.9 µM [cytotoxic, single point]
O=C(O)CCCN1C(=O)C2C3CCC(C3)C2C1=O (stereo not drawn) | inconclusive: 13 µM [rising, partial curve, poor fit]
C[C@@H](NC(=O)c1nc[nH]c1C(=O)N[C@H](C)c1ccccc1)c1ccccc1 | inactive
C=CCc1ccc(OCC(O)CN2CCN(c3ccccc3)CC2)c(OC)c1 (stereo not drawn) | inactive
CCN(CC)C(=O)c1cccc(-c2csc(C(C)(O)c3ccc(F)c(F)c3)n2)c1 (stereo not drawn) | inconclusive: 2.31 µM [cytotoxic, full curve, poor fit]
CC1CCOC2(O1)C(=O)Nc1ccccc12 (stereo not drawn) | inconclusive: 0.461 µM [cytotoxic, full curve, poor fit]
CC(C)Oc1cccc(C(=O)N/N=C/c2coc3ccccc3c2=O)c1 | inconclusive: 29.1 µM [rising, single point]
Cc1ccc(SC[C@H](Cc2ccccc2)N2CCN(CC(C)C)CCC2=O)cc1 | inactive
CCCCn1c(N)c(N(CCOC)C(=O)CC2CCCCC2)c(=O)[nH]c1=O | inactive
CCC1CCCCN1CC(=O)c1c(C)[nH]c2cc(C)ccc12 (stereo not drawn) | inconclusive: 2.06 µM [cytotoxic, partial curve, poor fit]
COc1ccccc1-c1cc(C(F)(F)F)nc(N2CCN(c3ccccc3)CC2)n1 | inconclusive: 13 µM [cytotoxic, partial curve]
Cn1c(C(=O)NCCCN2CCN(c3ccccc3F)CC2)cc2c(=O)n(C)c3ccccc3c21 | inconclusive: 16.4 µM [cytotoxic, single point]

2 compounds picked at random from those above:
Compound | Potency
CC1(C)C2CCC1(C)C(SC(=N)N)C2 (stereo not drawn) | active: 18.4 µM
O=C(O)CCCN1C(=O)C2C3CCC(C3)C2C1=O (stereo not drawn) | inconclusive: 13 µM [rising, partial curve, poor fit]
